{"source": "PubChem BioAssay AID504444", "about": "(National Center for Advancing Translational Sciences (NCATS), 2011)", "note": "Among all 360,000 compounds or so, about 7,500 (2.1%) were called active. Inconclusive means that the source gave no clear call. Such entries were picked first, then a sample of the others. Calls follow the shape of the dose curve; as a rule, active = well fitted inhibition curve with a large enough effect; inconclusive = small, poorly fitted or top-dose-only effect, or effect the other way; inactive = flat fitted curve, though single readings scatter. A potency beside an inconclusive call is a rough fit, not a confirmed value. % is scaled to controls: 0 for no effect and ±100 for the full control effect; potency is read from the fitted curve at half-maximal effect."}
{"assay": "Nrf2 qHTS screen for inhibitors; also: nearly all actives have a fitted effect of over 60% in size", "details": "A549 ARE-Fluc reporter, luciferase luminescence, 18-24 h; activity change, negative = inhibition: at 46 µM (top of the series)", "in_short": "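Cells were seeded and rested 2 h, then exposed to compounds for 18-24 h. CellTiter-Fluor was read first as a viability measure. BugLite was added 15 min before the final luminescent read of ARE-luciferase activity in A549 cells.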"}
{"smiles": "O=C(Cn1cc(SCc2ccc(C(F)(F)F)cc2)c2ccccc21)N1CCCC1", "Potency": "inconclusive: 2.06 µM [activator, partial curve, poor fit]"}
{"smiles": "CCOc1ccc2nc(NC(=O)CC3Oc4ccccc4NC3=O)sc2c1", "note": "(stereo not given)", "Potency": "inconclusive: 29.1 µM [falling, single point]"}
{"smiles": "O=C(CSc1ccccc1F)NCCCN1CCCC1=O", "Potency": "inconclusive: 10.3 µM [activator, partial curve, poor fit]"}
{"smiles": "COc1ccc(N2C(=O)c3ccccc3NC2c2ccc(OC)c(COc3ccc(NC(C)=O)cc3)c2)cc1", "note": "(stereo not given)", "Potency": "inconclusive: 10.3 µM [activator, partial curve, poor fit]"}
{"smiles": "O=C(/C=C/c1ccc(Br)cc1)c1ccco1", "Potency": "inactive"}
{"smiles": "CC(O)c1cccc(N=Cc2ccc3ccccc3c2O)c1", "note": "(stereo not given)", "Potency": "inactive"}
{"smiles": "CCOc1ccc(Nc2nc(Cc3nnc(SCC(=O)NC4CCCCC4)n3C)cs2)cc1", "Potency": "inconclusive: 29.1 µM [falling, partial curve, poor fit]"}
{"smiles": "Cc1c(C(=O)NCc2ccccc2F)oc2ccccc12", "Potency": "inconclusive: 32.6 µM [activator, partial curve, poor fit]"}
{"smiles": "Cc1cc(N2CCCCC2)nc2ccc(NC(=O)/C=C/c3ccccc3OC(C)C)cc12", "activity change, negative = inhibition": "inactive: 7.64% [at 9.27 µM]"}
{"smiles": "COc1ccccc1NC(=O)c1cccc(S(=O)(=O)N2CCN(Cc3ccccc3)CC2)c1", "Potency": "inconclusive: 23.1 µM [falling, partial curve, poor fit]"}
{"smiles": "CCOC(=O)c1cc(C#N)c(N2CCN(c3ccccn3)CC2)nc1-c1ccccc1", "Potency": "inconclusive: 18.4 µM [falling, partial curve]"}
{"smiles": "CCOc1ccc(N(CC)S(=O)(=O)N2CCCC(C(=O)NCc3ccccc3Cl)C2)cc1", "note": "(stereo not given)", "Potency": "inconclusive: 29.1 µM [falling, single point]"}
{"smiles": "O=C(c1cc(-c2ccccc2)n[nH]1)N1CCc2c([nH]c3ccccc23)C1c1ccccn1", "note": "(stereo not given)", "Potency": "inconclusive: 20.6 µM [activator, single point]"}
{"smiles": "Cc1ccc2nc(NC(=O)C3CCCN3C(=O)OC(C)(C)C)sc2c1", "note": "(stereo not given)", "Potency": "inconclusive: 18.4 µM [activator, partial curve, poor fit]"}
{"smiles": "O=S(=O)(c1ccccc1)n1nc(-c2ccccc2)nc1NCc1ccc(Cl)cc1", "Potency": "inconclusive: 9.2 µM [falling, partial curve]"}
{"smiles": "COC(=O)[C@H](Cc1ccccc1)NC(=O)N1CCCCCC1", "Potency": "inconclusive: 8.2 µM [activator, partial curve, poor fit]"}
{"smiles": "Clc1cccc(/C=N/Nc2nc(Cl)nc3ccccc23)c1", "Potency": "inconclusive: 16.4 µM [activator, partial curve, poor fit]"}
{"smiles": "CC(=O)Nc1ccc(NC(=O)CCNS(=O)(=O)c2cccc3nsnc23)cc1", "Potency": "inactive"}
{"smiles": "COc1ccc(Br)cc1CN(C)CC(=O)Nc1cc(Cl)ccc1Cl", "Potency": "inactive"}
{"smiles": "O=C1CC(SC(=Nc2ccccc2)Nc2ccccc2)C(=O)N1c1ccc(Cl)c(Cl)c1", "note": "(stereo not given)", "Potency": "inconclusive: 29.1 µM [falling, single point]"}
{"smiles": "O=C(CC1Sc2ccccc2NC1=O)NNc1cccc(Cl)c1Cl", "note": "(stereo not given)", "Potency": "inconclusive: 29.1 µM [falling, single point]"}
{"smiles": "CS(=O)(=O)Nc1ccc(C2=NN(C(=O)c3ccco3)C(c3ccccc3F)C2)cc1", "note": "(stereo not given)", "Potency": "inconclusive: 6.51 µM [falling, partial curve]"}
{"smiles": "COc1cccc(-c2nc(CS(=O)(=O)CC(=O)NC3CCC(C)CC3)c(C)o2)c1", "note": "(stereo not given)", "Potency": "inconclusive: 29.1 µM [falling, single point]"}
{"smiles": "O=C(O)c1ccccc1-c1csc(-c2ccccc2)n1", "Potency": "inconclusive: 16.4 µM [activator, partial curve]"}
{"smiles": "CCCc1cc(=O)[nH]c(NCCc2ccccc2)n1", "Potency": "inconclusive: 29.1 µM [activator, partial curve, poor fit]"}
{"smiles": "CCc1ccc2oc(-c3cccc(NC(=O)c4ccc(N5CCC(C)CC5)c([N+](=O)[O-])c4)c3)nc2c1", "Potency": "inactive"}
{"smiles": "O=C(CNC(=O)C1CCCCC1)OC(C(=O)c1ccccc1)c1ccccc1", "note": "(stereo not given)", "Potency": "inconclusive: 29.1 µM [activator, single point]"}
{"smiles": "COc1cccc(NC(=O)Cn2cc(S(=O)(=O)N3CCCC3)c(S(=O)(=O)N3CCCC3)c2)c1", "Potency": "inconclusive: 20.6 µM [activator, partial curve]"}
{"smiles": "Cc1ccccc1CNC(=O)Cn1ncn2nc(-c3cccs3)cc2c1=O", "Potency": "inactive"}
{"smiles": "CCOc1ccc(-c2nc(CSCC(=O)N3CCN(c4cccc(OC)c4)CC3)c(C)o2)cc1", "Potency": "inconclusive: 29.1 µM [falling, single point]"}
{"smiles": "COc1ccccc1N1CCN(Cc2cc(=O)c(OCC(=O)Nc3ccccc3)co2)CC1", "Potency": "inconclusive: 29.1 µM [falling, single point]"}
{"smiles": "Cc1ccc(S(=O)(=O)NCc2ccc(C(=O)NC3CCCCC3)cc2)cc1", "Potency": "inconclusive: 29.1 µM [activator, single point]"}
{"smiles": "Cc1cccc(CSc2cn(CC(=O)N3CCCC3)c3ccccc23)c1", "Potency": "inconclusive: 6.51 µM [activator, partial curve]"}
{"smiles": "Cc1c(C(=O)NCCc2ccc(Cl)cc2)sc2nc3n(c(=O)c12)CCC3", "Potency": "inconclusive: 29.1 µM [falling, single point]"}
{"smiles": "Cc1nc2c(-c3ccccc3)c(C)nn2c(C)c1CCC(=O)N1CCOCC1", "Potency": "inconclusive: 18.4 µM [falling, partial curve]"}
{"smiles": "Cn1nnnc1Sc1ncnc2scc(-c3ccccc3C#N)c12", "Potency": "inconclusive: 29.1 µM [falling, single point]"}
{"smiles": "Cn1c(=O)cc(OCCCC(=O)Nc2ccc(F)cc2)c2ccccc21", "Potency": "inconclusive: 0.92 µM [falling, full curve, poor fit]"}
{"smiles": "CNC(=O)OCc1nc(SSC(C)(C)C)n(C)c1COC(=O)NC", "Potency": "inconclusive: 29.1 µM [falling, single point]"}
{"smiles": "O=C(NCCc1ccccc1Cl)c1cc(COc2ccc(F)cc2F)on1", "Potency": "inconclusive: 29.1 µM [falling, single point]"}
{"smiles": "CC1(c2nnc(Cc3ccccc3)o2)CC(c2ccccc2)=NO1", "note": "(stereo not given)", "Potency": "inactive"}
